Experimental data published in patent US5462927A, “Peptides aiding nerve regeneration” (The Administrators of the Tulane Educational Fund, priority 1992, dated 1995).
At least one peptide structure holds a part that was inferred or is arguable (an end, a ring closure or a residue). Square brackets hold non-standard residues; d marks the D form. Peptide text beside a SMILES is read from it. Nle = CCCC[C@H](N)C(=O)O

System: crushed sciatic nerve
Assay: Sensorimotor function test (sciatic nerve regeneration assay, foot-flick response to thermal pain)
Type: in vivo, rat
Details: s.c. every 24 hr for approximately 20-25 days; head prints only 'μG/24 HRS'; vs 0.9% NaCl control
Protocol: Female, Sprague-Dawley rats (Charles River Breeding Labs) were used at an age of 7-8 weeks (120-140 g). Under ether anesthesia, the right sciatic nerve was carefully exposed and crushed with constant pressure, hemostatic forceps for 30 sec prior to closure and suturing of the incision. After surgery, the animals were randomly assigned to treatment groups of 10. The test peptides were administered s.c. in 0.9% NaCl in a vol of 0.1 ml. NaCl (0.9%) served as the control. Injections were started immediately after surgery and given every 24 hr thereafter for approximately 20-25 days. The criterion of sciatic nerve regeneration was based on the recovery of the foot-flick response to thermal pain. Beginning 48 hr after surgery, the rats were tested five days a week for the ability to withdraw, from a heat source, the paw innervated by the crushed nerve. All sensorimotor testing was performed between 1:00 and 3:00 p.m. Specifically, the rat was immobilized by wrapping in a towel, and the sole of the lesioned limb was placed over the aperture of a modified d'Amour apparatus. The time required to withdraw the foot was recorded to the nearest 0.1 of sec using a digital stopwatch. If no response occurred by 5 sec, the test was terminated to avoid tissue damage. The observe measuring the foot-flick response was blind to the treatment group being tested. […]

Structure (SMILES): CCCC[C@H](N)C(=O)N[C@@H](CCC(N)=O)C(=O)N[C@@H](Cc1ccc(O)cc1)C(=O)N[C@@H](Cc1ccccc1)C(=O)N[C@@H](CCCNC(=N)N)C(=O)N[C@@H](Cc1c[nH]c2ccccc12)C(=O)NCC(N)=O [BIM-22013, NLeu--Gln--Tyr--Phe--Arg--Trp--Gly--NH2] (H-[Nle]QYFRWG-NH2)
- % Reduction of Recovery Time: 0%
